Source: ChEMBL document CHEMBL3988442, “University of Dundee, Small-Polar-MMV Screening Library” (2021).

Chains of the proteins cited; added tags and fusions are not shown. Residues count along the entry.
UniProt Q4DA54, 1-478: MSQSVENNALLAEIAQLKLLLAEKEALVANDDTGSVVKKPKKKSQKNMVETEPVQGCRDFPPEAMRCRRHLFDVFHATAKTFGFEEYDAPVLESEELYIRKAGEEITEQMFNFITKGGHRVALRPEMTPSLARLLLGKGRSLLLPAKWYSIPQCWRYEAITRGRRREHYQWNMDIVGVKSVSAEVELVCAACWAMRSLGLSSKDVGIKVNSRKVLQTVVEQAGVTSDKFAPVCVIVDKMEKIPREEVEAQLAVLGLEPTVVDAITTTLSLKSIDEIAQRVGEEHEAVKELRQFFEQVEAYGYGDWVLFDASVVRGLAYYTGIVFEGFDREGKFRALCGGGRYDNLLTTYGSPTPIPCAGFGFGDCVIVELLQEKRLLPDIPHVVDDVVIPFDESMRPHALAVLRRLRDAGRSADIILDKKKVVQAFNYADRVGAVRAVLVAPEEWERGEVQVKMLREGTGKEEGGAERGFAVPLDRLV
UniProt P9WNZ1, whole entry: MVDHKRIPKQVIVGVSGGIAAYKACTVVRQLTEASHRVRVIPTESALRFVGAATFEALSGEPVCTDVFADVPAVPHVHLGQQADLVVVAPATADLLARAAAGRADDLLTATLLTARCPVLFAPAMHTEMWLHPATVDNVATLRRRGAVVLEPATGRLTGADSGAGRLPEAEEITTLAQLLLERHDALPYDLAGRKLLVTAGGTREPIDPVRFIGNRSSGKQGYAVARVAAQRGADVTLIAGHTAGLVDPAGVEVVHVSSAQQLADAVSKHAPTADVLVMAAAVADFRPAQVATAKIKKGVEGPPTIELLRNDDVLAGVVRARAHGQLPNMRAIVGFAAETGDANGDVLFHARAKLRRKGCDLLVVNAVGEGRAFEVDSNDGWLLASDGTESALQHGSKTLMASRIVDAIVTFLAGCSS

Toxoplasma: 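Assay of Toxoplasma gondii numbers, read through their beta-galactosidase reporter with a colour substrate. Compounds at 10 µM. Higher reads as fewer parasites (inferred from which compounds were picked for retests). About 67,000 compounds were tested under these conditions; 0.38% (about 260) showed 50% or more at least once.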
TcHisRS: 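Enzyme assay of histidyl-tRNA synthetase; the read-out is not stated. Target: Histidine-tRNA ligase, Trypanosoma cruzi CL Brener (UniProt Q4DA54). Tested at 30 µM. Direction is inferred from retests: higher values go with stronger inhibition. Size under these conditions: about 69,000 compounds, about 31 of them at 50% or above in at least one test.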
CoaBC: 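Enzyme assay of CoaBC with a phosphate dye (Biomol Green) read at 650 nm. Target: Coenzyme A biosynthesis protein CoaBC, Mycobacterium tuberculosis (UniProt P9WNZ1). Compounds at 30 µM. Direction is inferred from only a few compounds that gave an IC50; most scored high, so higher reads as stronger inhibition. Most strong results did not repeat in a second test. Of about 67,000 compounds tested this way, about 40 (0.06%) reached 50% or more in at least one test.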
Leishmania in macrophages: 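Cell assay of Leishmania donovani living inside macrophages; the read-out is not stated. Tested at 30 µM. Higher reads as stronger inhibition (inferred: compounds with an IC50 in retests scored well above the rest). Size under these conditions: about 69,000 compounds, about 1,000 of them at 50% or above in at least one test.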

Values are the deposited “Percent Effect”, in %.
The controls that fix the scale are not given in the record; negative values are as filed.
Compounds were drawn at random from those tested, without regard to their results.
Two or more numbers in one place are separate tests of the same structure; such repeats can differ widely.

With Cc1oncc1C(=O)N1CCc2ncnc(-c3cnn(C)c3)c2CC1 the screen gave TcHisRS: 3.738%; CoaBC: 1.235%.
With CCOCC1CN(S(=O)(=O)CC)Cc2nn(C)cc21 (centres undefined) the screen gave Toxoplasma: -16.92%; TcHisRS: 2.062%; CoaBC: 4.433%; Leishmania in macrophages: 42.91%.
With Cc1nc(N2C[C@H]3CNC[C@H]3C2)c2sccc2n1 the screen gave TcHisRS: -1.087%; CoaBC: -14.72%.
With CCNc1cc2c(nn1)CCN(C(=O)C1COc3ccccc3O1)C2 (centres undefined) the screen gave Toxoplasma: -5.656%; TcHisRS: 6.122%; CoaBC: 3.371%; Leishmania in macrophages: 28%.
With [H][C@@]12CN(C(=O)C3CCOCC3)C[C@]1([H])OCCN2CCN1CCCC1 the screen gave Toxoplasma: 2.074%; Leishmania in macrophages: 25.6%.
With O=C(C1=CCCC1)N1C[C@@H]2COC[C@]2(COCc2ccncc2)C1 the screen gave TcHisRS: 11.64%; CoaBC: 5.185%.
With O=C(NCc1cccs1)NCC(O)(c1cccs1)C1CC1 (centres undefined) the screen gave Toxoplasma: -0.3861%; TcHisRS: 1.031%; CoaBC: -3.171%; Leishmania in macrophages: 3.666% & 22.98%.
With CC(C)c1nnc2n1CC(CNCc1nc3ccccc3o1)CC2 (centres undefined) the screen gave Toxoplasma: 12.74%; TcHisRS: 6.14%; CoaBC: 10.22%; Leishmania in macrophages: -64.39%.
With O=C1CO[C@@H]2CN(S(=O)(=O)c3ccc(F)cc3)C[C@H]2N1 the screen gave TcHisRS: 11.73%; CoaBC: 2.061%.
With Cc1cc(CN(C)C(C(=O)O)c2cccc(C(F)(F)F)c2)on1 (centres undefined) the screen gave Toxoplasma: -15.44%; TcHisRS: 2.679%; CoaBC: 1.384%; Leishmania in macrophages: -11.62%.
With CC(C)N(C)Cc1cn2c(n1)CN(C(=O)Cc1ccsc1)CC2 the screen gave TcHisRS: 2.479%; CoaBC: -26.02%.
With CC(C)c1noc(CN2CCC(c3nc4cc(Cl)ccc4o3)CC2)n1 the screen gave Toxoplasma: 12%; TcHisRS: 9.231%; CoaBC: 2.755%; Leishmania in macrophages: 9.648%.
With Cc1nnc(NCc2cccc(OCc3ccccn3)c2)c(C#N)c1C the screen gave Toxoplasma: 17.25%; TcHisRS: 13%; CoaBC: 5.569%; Leishmania in macrophages: 28.49%.
With O=C(O)C(F)(F)F.[H][C@@]12CCN(C3CCC3)C[C@]1(C(=O)N1CCOCC1)CCO2 the screen gave Toxoplasma: 41.32%; Leishmania in macrophages: 2.204%.
With CC(=O)N(Cc1noc(C)n1)C1CCN(Cc2cc(C)on2)C1 (centres undefined) the screen gave Toxoplasma: -3.485%; TcHisRS: 4.151%; CoaBC: 5.385%; Leishmania in macrophages: 6.703%.
With CC(C)(C)CC(=O)NCCn1nc(C2CCNC2)c2cccnc21 (centres undefined) the screen gave TcHisRS: 2.222%; CoaBC: 1.937%.
With CNCC(=O)N1CC(c2cc(Nc3nc(C)cs3)nc(C)n2)C1 the screen gave TcHisRS: 7.491%; CoaBC: -1.115%.
With [H][C@]12C[C@@H](CN(C)C)N(C(C)=O)[C@@]1([H])CCN(C(=O)c1ccsc1)C2 the screen gave Toxoplasma: -8.025%; Leishmania in macrophages: -29.67%.
With Cc1noc(C)c1CN1C[C@@H]2COC[C@@H](C(=O)N3CCCO3)[C@@H]2C1 the screen gave TcHisRS: 5.882%; CoaBC: 2.75%.
With c1ccc(-c2nc(CN3CCn4c(nnc4C4CC4)C3)no2)cc1 the screen gave Toxoplasma: 8.437%; TcHisRS: 2.02%; CoaBC: 2.269%; Leishmania in macrophages: -1.244%.
With N#Cc1ccc(OCC(O)CN2CCC(c3ccn[nH]3)CC2)cc1 (centres undefined) the screen gave Toxoplasma: -12.53%; TcHisRS: 4%; CoaBC: -2.362%; Leishmania in macrophages: 35.34%.
With [H][C@@]12CN(S(=O)(=O)N3CCCC3)C[C@]1([H])N(CCc1cccc(Cl)c1)C(=O)O2 the screen gave Toxoplasma: 6.564%; Leishmania in macrophages: 36.02%.

2 of the entries, repeated:

* CCOCC1CN(S(=O)(=O)CC)Cc2nn(C)cc21 (centres undefined) | Toxoplasma: -16.92%; TcHisRS: 2.062%; CoaBC: 4.433%; Leishmania in macrophages: 42.91%
* O=C(C1=CCCC1)N1C[C@@H]2COC[C@]2(COCc2ccncc2)C1 | TcHisRS: 11.64%; CoaBC: 5.185%